In PubChem BioAssay AID1347076 (National Center for Advancing Translational Sciences (NCATS), 2019):
Among all 400,000 compounds or so, about 13,000 (3.2%) were called active. Inconclusive means that the source gave no clear call. Such entries were picked first, then a sample of the others. The call rests on the fitted dose curve; in most records, active means well fitted cell-killing curve with a large enough effect; inconclusive means small, poorly fitted or top-dose-only effect, or effect the other way; inactive means flat fitted curve, though single readings scatter. Potencies beside an inconclusive call are fits to weak or partial responses and may not hold up.

experiment: qHTS assay for MDR1-selective chemotherapeutics: Primary screen using the drug-selected MDR subline cells KB-V1; settings: KB-V1 MDR cells viability, CellTiter-Glo, 72 h; activity change, negative = cytotoxicity: at 46.1 µM (top of the series); further: nearly all actives have a fitted effect of over 60% in size
Outline: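 Compound-treated KB-V1 multidrug-resistant cells, 72 h, 37 degrees C; viability by CellTiter-Glo. Fitted qHTS curves give the values.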
On the % scale 0 is the no-effect control and ±100 the full control effect; potency means the concentration at half of the fitted maximal effect.

Structure (SMILES) | Potency | activity change, negative = cytotoxicity
COc1cc(OC)c(N(C)C(=O)c2cc3c(=O)oc4ccccc4c3s2)cc1Cl | inconclusive: 29.1 µM [rising, single point] | –
Cc1ccc(CN2CCN(Cc3cnc(C)s3)CC2CCO)o1 (stereo not given) | inconclusive: 4.11 µM [rising, partial curve, poor fit] | –
O=C(Nc1ccc2c(c1)OCCO2)c1ccccc1Cl | – | inactive: 0.191%
CO/N=C\CC(=O)Nc1ccc(Cl)c(Cl)c1 | inconclusive: 4.11 µM [cytotoxic, full curve] | –
Cc1nc2ccc(C(=O)OCc3ccccc3Br)cc2nc1C | inconclusive: 32.6 µM [cytotoxic, single point] | –
CCOC(=O)C1=C(C)NC(C)=C(C(=O)OCC)C1C(=O)OCC(=O)NC(C)c1ccccc1 (stereo not given) | inconclusive: 9.2 µM [cytotoxic, partial curve] | –
CCc1ccc(N2CSC3=C(C#N)C(c4cccs4)CC(=O)N3C2)cc1 (stereo not given) | – | inactive: -6.05%
Cc1ccc2c(c1)-c1nc3ccccc3cc1C2=NC1CCCCC1 | inconclusive: 16.4 µM [cytotoxic, single point] | –
CCN(CC)C(=O)CSCc1cnn(-c2ccccc2)c1-n1cccc1 | inconclusive: 8.2 µM [cytotoxic, partial curve, poor fit] | –
Cc1ccc(-n2c(=O)c3c(c4cc(C)ccc4n3C)n(Cc3ccc(F)cc3)c2=O)cc1 | – | inactive: 9.4%
O=C(O)CCCNC(=O)/C(=C\c1ccc(Cl)cc1)NC(=O)c1ccccc1Br | inconclusive: 29.1 µM [rising, single point] | –
CCN(CC)CCN(C(=O)c1ccc2c(c1)CCCC2)c1nc2ccc(OC)cc2s1 | – | inactive: -24.4%
CC(C)C[C@H](NC(=O)N1CC(=O)Nc2ccccc21)C(=O)N1CCC(C(=O)O)CC1 | inconclusive: 16.4 µM [rising, single point] | –
COc1cc(NC(C)CCc2ccccc2)cc(OC)c1OC (stereo not given) | inconclusive: 23.1 µM [cytotoxic, single point] | –
Cn1c2ccccc2c2ccc3c(c21)C(=O)C=CC3=O | inconclusive: 29.1 µM [cytotoxic, single point] | –
Cc1cc(=O)[nH]c(SCc2nnnn2-c2ccc(Cl)cc2)n1 | inconclusive: 10.3 µM [cytotoxic, partial curve, poor fit] | –
NNc1nc2c(-c3cccc(C(F)(F)F)c3)nnn2c2ccccc12 | inconclusive: 29.1 µM [cytotoxic, single point] | –
C=CCC(O)(CC=C)CNC(=O)c1ccc(OC)c(OC2CCN(C(C)=O)CC2)c1 | inconclusive: 29.1 µM [rising, single point] | –
CCc1c(C(=O)Nc2ccccc2C(N)=O)csc1C | – | inactive: -19.4%
COc1ccc(NC(=O)C[C@H]2C(=O)N(c3ccccc3)C[C@@H]2C)cc1 | – | inactive: -3.08%
CC(=O)N1CCSc2ccc(S(=O)(=O)NCc3ccc(F)cc3)cc21 | inconclusive: 18.4 µM [cytotoxic, single point] | –
Cc1nc2c(O)c3c(c(O)c2nc1C)C1C=CC3CC1 | inconclusive: 2.91 µM [cytotoxic, partial curve, poor fit] | –
O=C(CCC1N=C2c3ccccc3N=C(SCC(=O)Nc3ccc(F)cc3)N2C1=O)NCc1cccs1 (stereo not given) | inconclusive: 20.6 µM [cytotoxic, single point] | –
CCCCCn1c2c(c(=N)c3ccccc31)CCC2 | inconclusive: 7.31 µM [rising, partial curve, poor fit] | –

2 consecutive records out of the list so far, quoted:
Structure (SMILES) | Potency | activity change, negative = cytotoxicity
O=C(O)CCCNC(=O)/C(=C\c1ccc(Cl)cc1)NC(=O)c1ccccc1Br | inconclusive: 29.1 µM [rising, single point] | –
CCN(CC)CCN(C(=O)c1ccc2c(c1)CCCC2)c1nc2ccc(OC)cc2s1 | – | inactive: -24.4%

Remaining list, next part.

Structure (SMILES) | Potency | activity change, negative = cytotoxicity
Cc1nn2c(Nc3ccccc3)c3c(nc2c1-c1ccccc1)CCC3 | – | inactive: 10.5%
COc1cc(OC)c(C(=O)Nc2cccc(C(C)=O)c2)cc1OC | inconclusive: 14.6 µM [cytotoxic, partial curve] | –
O=C(Cc1noc2ccccc12)Nc1ccc(Cl)cc1 | inconclusive: 11.6 µM [cytotoxic, partial curve, poor fit] | –
Cc1cccc(C)c1NC(=O)CNC(=O)c1cncc(Br)c1 | inconclusive: 11.6 µM [rising, partial curve, poor fit] | –
CCOc1ncccc1C(=O)Nc1ccc(OC)c(S(=O)(=O)N2CCCCC2)c1 | inconclusive: 2.59 µM [cytotoxic, partial curve] | –
CCOC(=O)c1ccccc1NC(=O)C1CC(=O)N(C2CCCC2)C1 (stereo not given) | – | inactive: 0%
N#CC(c1ccccn1)(c1ncc(C(F)(F)F)cc1Cl)N1CCOCC1 (stereo not given) | – | inactive: -28.6%
CNc1nc2ccccc2n1CC(=O)c1ccccc1 | inconclusive: 20.6 µM [rising, partial curve, poor fit] | –
Cc1noc(C)c1COc1ccc(C(=O)N2CCCC(C(N)=O)C2)cc1 (stereo not given) | inconclusive: 29.1 µM [rising, single point] | –
O=C1NCC(=O)N2C(c3ccccc3)c3[nH]c4ccccc4c3C[C@@H]12 (stereo not given in full) | – | inactive: 0.458%
COc1ccc(CNC(=O)CN(C(=O)Cn2nnc(-c3ccccc3F)n2)c2ccc(C)cc2)cc1 | – | inconclusive: -16.8%
O=C(NCC(=O)N(c1ccccc1)C(C(=O)NC1CCCC1)c1ccncc1)c1cccs1 (stereo not given) | – | inactive: -0.358%
O=[N+]([O-])c1cc(C(F)(F)F)ccc1Sc1ccc2ccccc2n1 | inconclusive: 25.9 µM [cytotoxic, single point] | –
O=C(CSc1ncc(-c2ccc(F)cc2)n1Cc1ccco1)Nc1nccs1 | inconclusive: 7.31 µM [cytotoxic, partial curve, poor fit] | –
O=C(CCN1CCN(Cc2ccccc2)CC1)Nc1ccc(OCc2ccccc2)cc1 | active: 2.59 µM | –
CC(NC(=O)COC(=O)Cn1cc(C(F)(F)F)ccc1=O)c1ccccc1 (stereo not given) | inconclusive: 0.231 µM [rising, full curve, poor fit] | –
CS(=O)(=O)N1CCN(c2ccc(C(=O)NC3C4CC5CC(C4)CC3C5)cc2[N+](=O)[O-])CC1 (stereo not given) | active: 11.6 µM | –
CCN(CC)S(=O)(=O)c1cccc(C(=O)N/N=C/c2ccc([N+](=O)[O-])o2)c1 | inconclusive: 29.1 µM [cytotoxic, single point] | –
O=C1NC[C@H](Cc2ccccc2)N(CCc2cccc(F)c2)C1=O | inconclusive: 10.3 µM [rising, partial curve, poor fit] | –
O=C(NCCOCCn1c(=O)oc2ccccc21)Nc1cccc(Cl)c1 | – | inactive: 2.12%
Cc1ccc(C2=NN(C(=S)Nc3ccccc3)C(c3ccco3)C2)cc1 (stereo not given) | – | inactive: -1.11%
CCn1ccnc1CN(C)C(=O)CC1C(=O)NCCN1Cc1c(F)cccc1Cl (stereo not given) | inconclusive: 29.1 µM [rising, single point] | –
CC(=O)Oc1cc(C)cc2oc(=O)cc(-c3ccccc3)c12 | – | inactive: -3.04%
Cc1cccc(C(=O)OCC(=O)N(C)CC(=O)Nc2ccc(Cl)c(C(F)(F)F)c2)c1 | – | inactive: -1.5%

Structure (SMILES) | Potency | activity change, negative = cytotoxicity
CCCN1CCC(C)(C(=O)Nc2cccc(OC(C)C)c2)C1 (stereo not given) | – | inactive: -17.1%
CCOC(=O)c1noc2ncnc(NCc3ccccc3OC)c12 | – | inactive: -3.39%
COc1ccc(OCC(=O)Nc2ccccc2C(=O)N2CCCC2)cc1 | inconclusive: 20.6 µM [cytotoxic, single point] | –
CN1CCN(c2nc(-c3ccncc3)nc3ccccc23)CC1 | inconclusive: 14.6 µM [cytotoxic, partial curve, poor fit] | –
CCCc1cc(=O)[nH]c2nnc(SCC(=O)Nc3cccc(NC(C)=O)c3)n12 | – | inactive: -0.0662%
C/C(=N\OC(=O)c1ccc(F)cc1)c1sc(-c2ccc(Cl)cc2)nc1C | inconclusive: 29.1 µM [rising, single point] | –
CC1(C)CC(=O)C(C(c2ccncc2)C2C(=O)CC(C)(C)CC2=O)C(=O)C1 | – | inactive: 9.23%
O=C(CCCOc1ccccc1)Nc1cccc(S(=O)(=O)N2CCOCC2)c1 | inconclusive: 29.1 µM [cytotoxic, single point] | –
C/C(=N\N=C1\NC(=O)C(CC(=O)O)S1)c1ccccn1 (stereo not given) | – | inactive: -3.5%
O=C(NC(c1ccc(-c2ccccc2)cc1)c1cnccn1)C1CCN(Cc2ccc3c(c2)OCO3)CC1 (stereo not given) | inconclusive: 20.6 µM [cytotoxic, single point] | –
CCOc1ccccc1NC(=O)CN1C(=O)CSC(C)C1=O (stereo not given) | – | inactive: 0%
CCn1c(SCc2nc3ccccc3c(=O)[nH]2)nc2ccccc21 | inconclusive: 8.2 µM [cytotoxic, partial curve] | –
O=C1[C@@H]2Cc3c([nH]c4ccccc34)CN2C(=O)CN1CCCCCO | inconclusive: 7.31 µM [rising, partial curve, poor fit] | –
Cc1cccc(NC(=O)c2cc(Cl)nc3ccccc23)n1 | inconclusive: 18.4 µM [cytotoxic, single point] | –
CN(C)c1ccc(CC(=O)N2CCCC(c3cc(C(=O)Nc4ccc(F)c(Cl)c4)no3)C2)cc1 (stereo not given) | active: 20.6 µM | –
Cc1oc(C)c2c(=O)cc(-c3ccc4c(c3)OCO4)cc(OC(=O)c3cccc(Cl)c3)c12 | inconclusive: 16.4 µM [rising, single point] | –
O=C(NCCc1ccc(Cl)cc1Cl)c1cccnc1 | – | inconclusive: -40.9% [cytotoxic]
Cc1ccc(C(=O)N2CCc3ccccc3C2)cc1S(=O)(=O)N1CCOCC1 | inconclusive: 8.2 µM [cytotoxic, partial curve] | –
Cc1ccc(C)c(C(O)c2ncc(-c3ccc(C(F)(F)F)cc3)[nH]2)c1 (stereo not given) | – | inactive: 2.88%
C=CCNC(=O)CSc1nc2ccccc2c(=O)n1CCc1ccc(OC)c(OC)c1 | inconclusive: 29.1 µM [cytotoxic, single point] | –
O=C1c2ccccc2C(=O)N1CCSc1nc2ccccc2c(=O)n1CCCN1CCOCC1 | inconclusive: 8.2 µM [cytotoxic, partial curve] | –
CCOC(=O)C1=CCN(S(=O)(=O)c2ccccc2C)C1c1ccc(Cl)cc1 (stereo not given) | inconclusive: 29.1 µM [cytotoxic, single point] | –
